# Measured values: PubChem BioAssay (Tox21)
# Protein sequences, listed by entry. Tags and fused reporters are not part of them. Lines headed by an entry give the natural chain unless they say otherwise; changes in a name come on top.
# UniProt O75469: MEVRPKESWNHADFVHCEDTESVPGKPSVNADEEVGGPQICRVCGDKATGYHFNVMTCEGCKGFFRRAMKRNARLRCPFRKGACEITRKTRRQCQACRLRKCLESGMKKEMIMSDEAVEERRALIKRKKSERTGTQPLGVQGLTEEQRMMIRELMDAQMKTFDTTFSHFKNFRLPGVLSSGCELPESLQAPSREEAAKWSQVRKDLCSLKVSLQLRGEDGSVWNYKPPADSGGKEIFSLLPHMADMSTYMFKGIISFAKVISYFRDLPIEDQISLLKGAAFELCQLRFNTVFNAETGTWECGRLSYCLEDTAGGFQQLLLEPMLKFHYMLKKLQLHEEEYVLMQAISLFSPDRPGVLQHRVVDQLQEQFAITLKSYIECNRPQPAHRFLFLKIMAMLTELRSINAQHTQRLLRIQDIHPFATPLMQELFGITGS
# UniProt P22303: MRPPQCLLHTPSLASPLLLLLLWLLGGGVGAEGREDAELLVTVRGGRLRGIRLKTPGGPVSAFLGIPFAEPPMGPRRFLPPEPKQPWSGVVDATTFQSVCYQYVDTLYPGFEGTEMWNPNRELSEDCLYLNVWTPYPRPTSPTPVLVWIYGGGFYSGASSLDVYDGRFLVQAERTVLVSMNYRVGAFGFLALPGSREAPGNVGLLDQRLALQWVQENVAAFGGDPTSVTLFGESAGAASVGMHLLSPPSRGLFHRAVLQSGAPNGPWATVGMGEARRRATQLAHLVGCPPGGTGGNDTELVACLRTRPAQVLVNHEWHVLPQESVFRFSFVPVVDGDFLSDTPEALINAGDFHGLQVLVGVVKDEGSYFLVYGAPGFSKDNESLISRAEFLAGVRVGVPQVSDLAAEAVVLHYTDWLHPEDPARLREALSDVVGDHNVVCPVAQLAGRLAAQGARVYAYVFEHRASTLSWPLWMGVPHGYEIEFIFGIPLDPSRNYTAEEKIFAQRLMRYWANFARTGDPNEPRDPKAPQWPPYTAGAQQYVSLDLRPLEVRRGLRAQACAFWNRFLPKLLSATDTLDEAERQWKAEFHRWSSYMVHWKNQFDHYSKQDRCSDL
# “And” between values parts separate entries of the source, which are not always exact repeats. Equal entries are not always repeated. Inconclusive results, whose numbers are uncertain, are shown with a selection of clear calls. A potency beside an inconclusive call is a rough fit, not a confirmed value. Some compounds were tested as several samples or in several runs, with calls that do not always agree. The source made the active and inactive calls. Unless noted, calls follow the shape of the dose curve; as a rule, active = well fitted activation curve with a large enough effect in the repeat runs; inconclusive = weak or mixed curves; inactive = no such curve, though single readings can be large or run the other way.
# Target: Nuclear receptor subfamily 1 group I member 2 (Homo sapiens) (UniProt O75469)
# Test: Human pregnane X receptor (PXR) small molecule agonists, qHTS assay (AID 1346982); also: nearly all actives have a fitted effect of over 35% in size
# Settings: PXR-Luc HepG2, CYP3A4 luciferase reporter, 24 h; series mostly up to 92.4 µM
# Summary of the method: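 PXR-Luc HepG2 cells (CYP3A4 promoter-driven luciferase) were seeded in medium with 5% charcoal-stripped FBS, left 5 hr at 37 C, then exposed to compounds in DMSO for 24 hr. Luminescence was read after ONE-Glo addition.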
# Potency is read from the fitted curve at half-maximal effect.
row,Structure (SMILES),Potency
1,OC[P+](CO)(CO)CO,"active: 61.8 µM and inconclusive: 68.6 µM [activator, partial curve, poor fit]"
2,CC(=O)c1cc2c(cc1C)C(C)(C)C(C)CC2(C)C (configuration not stated),"inconclusive: 30.6 µM [activator, partial curve]"
3,N#CCC#N,"inconclusive: 68.6 µM [activator, single point]"
4,CN1C2CCC(C)(C)C1CC(OC(=O)C(O)(c1cccs1)c1cccs1)C2 (configuration not stated),"inconclusive: 29.8 µM [activator, single point]"
5,Oc1c(Cl)c(Cl)cc(Cl)c1Cl,"inconclusive: 66.7 µM [activator, single point]"
6,Nc1c(Cl)cc([N+](=O)[O-])cc1Cl,"inconclusive: 34.4 µM [activator, partial curve]"
7,COP(=S)(OC)SCn1nnc2ccccc2c1=O,"inconclusive: 24.3 µM [activator, single point]"
8,CCCCN(CCCC)C(=S)[S-].CCCCN(CCCC)C(=S)[S-].[Zn+2],inconclusive: 6.11 µM [activator]
9,O=C(c1ccccc1)C(Cl)Cl,"inconclusive: 0.0061 µM [activator, partial curve, poor fit]"
10,Nc1cccc2ccccc12,active: 48.9 µM and active: 61.1 µM

# Part of the list above, set out differently:
row	Structure (SMILES)	Potency
1	OC[P+](CO)(CO)CO	active: 61.8 µM and inconclusive: 68.6 µM [activator, partial curve, poor fit]
5	Oc1c(Cl)c(Cl)cc(Cl)c1Cl	inconclusive: 66.7 µM [activator, single point]

# Target: Acetylcholinesterase (Homo sapiens) (UniProt P22303)
# Test: Acetylcholinesterase (AChE) small molecule antagonists: colormetric cell-based qHTS assay (AID 1347395; calls by dose curve; also: nearly all actives have a fitted effect of over 30% in size)
# Settings: SH-SY5Y cells AChE activity, colorimetric (Ellman); series mostly up to 115 µM
# Summary of the method: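 SH-SY5Y cells; cpd 30 min 37 C; + DTNB/acetylthiocholine, 90 min 37 C; colorimetric thiocholine read; qHTS.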
row,Structure (SMILES),Potency
1,CCCCCCOC(=O)c1ccccc1C(=O)OCCCCCC,"inconclusive: 2.29 µM [inhibitor, full curve, poor fit]"
2,CCOP(=S)(OCC)SCn1c(=O)oc2cc(Cl)ccc21,"inconclusive: 48.1 µM [inhibitor, partial curve] and inconclusive: 56.4 µM [inhibitor, partial curve]"
3,Oc1ccc(C(=C(Cl)Cl)c2ccc(O)cc2)cc1,inactive

# Target: Acetylcholinesterase (Homo sapiens) (UniProt P22303)
# Test: Acetylcholinesterase (AChE) small molecule antagonists: enzyme-based qHTS assay (AID 1347397; calls by dose curve; also: nearly all actives have a fitted effect of over 55% in size)
# Settings: Potency: AChE enzyme activity inhibition; series mostly up to 115 µM
# Summary of the method: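 Absorbance-based detection of thiocholine with DTNB served as the read-out. Recombinant human AChE was exposed to compound for 30 min at RT before a 10 min RT incubation with acetylthiocholine.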
row,Structure (SMILES),Potency
1,CCCCCCOC(=O)c1ccccc1C(=O)OCCCCCC,"inconclusive: 81.3 µM [falling, partial curve, poor fit]"
2,CC1COC(Cn2cncn2)(c2ccc(Oc3ccc(Cl)cc3)cc2Cl)O1 (configuration not stated),inactive
3,Clc1ccc(CSC(Cn2ccnc2)c2ccc(Cl)cc2Cl)cc1 (configuration not stated),"inconclusive: 34.7 µM [falling, partial curve]"
4,Oc1ccc(C(=C(Cl)Cl)c2ccc(O)cc2)cc1,"inconclusive: 89.2 µM [falling, partial curve, poor fit]"
